Assay results: US6528656B1, “Linear or cyclic aminophosphonates as pH markers in phosphorus 31 NMR spectroscopy” (Centre National de la Recherche Scientifique (CNRS), priority 1998, dated 2003)
Like-named read-outs stand apart in the source and are kept apart here.

Format: physicochemical

Structure (SMILES): CCOP(=O)(OCC)C1(C)CCCN1 (centres unmarked) [Compound 1, 2-methyl-2-diethoxyphosphorylpyrrolidine]
- amplitude of the chemical shift variation (pH 4 to 10, 22° C. (difference of the printed limits)): 9.642
- amplitude of the chemical shift variation (pH 4 to 10, 37° C. (difference of the printed limits)): 9.649
